Assay results: PubChem BioAssay AID922 (National Center for Advancing Translational Sciences (NCATS), 2007)
Inconclusive means that the source gave no clear call. Such entries were picked first, then a sample of the others. Potencies of inconclusive entries are doubtful fits and often do not repeat. “Side channel” marks fits to a control or component signal instead of the main read-out. The source made the active and inactive calls. Calls follow the shape of the dose curve; as a rule, active = well fitted inhibition curve with a large enough effect in the signal ratio, with a control signal flat; inconclusive = small, poorly fitted or top-dose-only effect, or effect the other way; inactive = flat fitted curve, though single readings scatter; the % refers to the signal ratio.

Experiment: Confirmation Concentration-Response Assay for Identification of Small Molecule Antagonists of Stat Signaling Pathway
Conditions: SIE-bla cells, IL-6 stimulated, beta-lactamase ratio, 5 h; series mostly up to 38.3 µM
Method in brief: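 Retest of STAT antagonists: compounds co-added with an EC50 dose of IL-6 (40 pM) to overnight-plated SIE-bla cells, 5 h at 37 °C. LiveBLAzer FRET substrate, 2.5 h room temperature, fluorescence 460 and 530 nm at 405 nm excitation.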

Potency, active:
CN(C)S(=O)(=O)c1ccc2c(c1)/C(=C/c1cc3c([nH]1)CCCC3)C(=O)N2 2.51 µM, C=C1C(=O)O[C@@H]2[C@@H]1CC/C(C)=C\CC[C@@]1(C)O[C@H]21 25.1 µM, O=C(O)CCc1c2ccc(=O)c(O)c-2oc2c(O)c(O)ccc12 10 µM, CC1CCN(CC[S-])CC1.O.O.[Cl][Pt] 25.1 µM

Potency, inconclusive:
CCOC(=O)CSc1nnc2n(Cc3ccccc3)c(=O)c3c4c(sc3n12)CCC4 15.8 µM [activator, partial curve, poor fit], Nc1ncnc2c1ncn2[C@@H]1O[C@H](COP(=O)(O)O)[C@@H](O)[C@@H]1O 25.1 µM [activator, partial curve], COc1cc(-c2nn3c(COc4ccccc4)nnc3s2)cc(OC)c1OC 1.26 µM [activator, full curve, poor fit], Nc1ncnc2c1ncn2[C@@H]1O[C@H](CO)[C@@H](O)[C@H]1O 1.26 µM [inhibitor, full curve, poor fit], CN1CCc2c(sc3ncn4nc(-c5ccccc5O)nc4c23)C1 15.8 µM [inhibitor, full curve, poor fit], C=CCn1c(SCC(=O)c2ccc(NS(=O)(=O)c3ccccc3)cc2)nnc1-c1cccs1 25.1 µM [inhibitor, single point], CSc1ccc2c(c1)N(CCC1CCCCN1C)c1ccccc1S2 (centres undefined) 25.1 µM [activator, partial curve, poor fit], Cc1ccc(S(=O)(=O)N2CCN(c3nc(C(C)C)c4c(c3C#N)CC(C)(C)OC4)CC2)cc1 10 µM [activator, full curve], CCOC(=O)c1cc2c(=O)n3cccc(C)c3nc2n(C)c1=N 3.98 µM [activator, full curve], COc1ccc2[nH]c3c(N4CCN(Cc5ccc6c(c5)OCO6)CC4)ncnc3c2c1 25.1 µM [inhibitor, partial curve, poor fit], Cc1ccc2[nH]c3c(N4CCCCCC4)ncnc3c2c1 5.01 µM [inhibitor, full curve, poor fit], Nc1ncnc2c1ncn2[C@@H]1O[C@@H](CO)[C@H](O)[C@@H]1O 3.16e-05 µM [activator, full curve, poor fit], CCN(CC)CCN1C(=O)c2cccc3cc(N)cc(c23)C1=O 15.8 µM [activator, partial curve], COc1cccc2c1C(=N)c1c(O)c3c(c(O)c1C2=O)C[C@](O)(C(C)=O)C[C@@H]3O[C@H]1C[C@H](N)[C@@H](O)[C@H](C)O1 12.6 µM [side channel, falling, partial curve, poor fit], Cc1cc(=O)oc2c(CN3CCCCC3)c(O)c(Cl)cc12 10 µM [activator, full curve]
